Reference: paper PMC9556925
No constants are given. Whether binding was seen depends on the method and setting. Binding seen in cells or lysates may run through a third protein. Some entries that bind do so weakly or less than the wild type. For part of these data: Tags and fused reporters may be left off the sequences shown.

The chains behind the UniProt entries cited, without tags or fusion partners.
UniProt P35568: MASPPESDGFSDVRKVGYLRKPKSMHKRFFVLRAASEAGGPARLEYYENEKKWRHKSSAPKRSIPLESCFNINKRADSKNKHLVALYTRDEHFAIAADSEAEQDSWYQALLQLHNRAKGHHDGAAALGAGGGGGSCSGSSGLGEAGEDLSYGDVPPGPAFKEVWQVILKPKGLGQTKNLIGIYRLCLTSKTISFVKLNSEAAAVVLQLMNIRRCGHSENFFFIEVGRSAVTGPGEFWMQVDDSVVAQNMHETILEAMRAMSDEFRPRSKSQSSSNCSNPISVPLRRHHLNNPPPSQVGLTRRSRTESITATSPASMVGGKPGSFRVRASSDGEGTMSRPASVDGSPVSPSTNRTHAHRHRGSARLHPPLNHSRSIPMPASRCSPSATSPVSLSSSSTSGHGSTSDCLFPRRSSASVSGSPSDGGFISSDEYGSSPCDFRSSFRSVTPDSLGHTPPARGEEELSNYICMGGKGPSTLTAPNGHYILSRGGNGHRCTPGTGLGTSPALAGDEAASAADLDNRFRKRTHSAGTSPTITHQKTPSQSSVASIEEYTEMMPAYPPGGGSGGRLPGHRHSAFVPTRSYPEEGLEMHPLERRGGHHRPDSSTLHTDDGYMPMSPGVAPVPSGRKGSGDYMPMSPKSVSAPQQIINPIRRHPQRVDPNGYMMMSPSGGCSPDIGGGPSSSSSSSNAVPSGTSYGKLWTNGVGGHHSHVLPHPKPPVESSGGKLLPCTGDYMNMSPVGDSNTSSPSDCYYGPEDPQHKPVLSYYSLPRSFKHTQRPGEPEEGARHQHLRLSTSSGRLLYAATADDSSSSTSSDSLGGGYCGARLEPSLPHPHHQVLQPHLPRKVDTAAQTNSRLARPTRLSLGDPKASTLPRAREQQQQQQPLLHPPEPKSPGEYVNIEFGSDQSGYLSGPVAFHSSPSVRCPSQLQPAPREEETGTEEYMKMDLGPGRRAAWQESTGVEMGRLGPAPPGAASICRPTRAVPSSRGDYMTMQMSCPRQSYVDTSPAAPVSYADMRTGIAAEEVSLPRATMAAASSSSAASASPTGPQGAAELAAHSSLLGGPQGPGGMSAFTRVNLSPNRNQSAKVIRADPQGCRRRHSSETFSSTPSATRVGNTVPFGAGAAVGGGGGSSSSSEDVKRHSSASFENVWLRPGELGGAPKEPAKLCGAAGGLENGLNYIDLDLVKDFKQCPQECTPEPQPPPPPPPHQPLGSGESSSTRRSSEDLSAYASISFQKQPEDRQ
UniProt Q12778: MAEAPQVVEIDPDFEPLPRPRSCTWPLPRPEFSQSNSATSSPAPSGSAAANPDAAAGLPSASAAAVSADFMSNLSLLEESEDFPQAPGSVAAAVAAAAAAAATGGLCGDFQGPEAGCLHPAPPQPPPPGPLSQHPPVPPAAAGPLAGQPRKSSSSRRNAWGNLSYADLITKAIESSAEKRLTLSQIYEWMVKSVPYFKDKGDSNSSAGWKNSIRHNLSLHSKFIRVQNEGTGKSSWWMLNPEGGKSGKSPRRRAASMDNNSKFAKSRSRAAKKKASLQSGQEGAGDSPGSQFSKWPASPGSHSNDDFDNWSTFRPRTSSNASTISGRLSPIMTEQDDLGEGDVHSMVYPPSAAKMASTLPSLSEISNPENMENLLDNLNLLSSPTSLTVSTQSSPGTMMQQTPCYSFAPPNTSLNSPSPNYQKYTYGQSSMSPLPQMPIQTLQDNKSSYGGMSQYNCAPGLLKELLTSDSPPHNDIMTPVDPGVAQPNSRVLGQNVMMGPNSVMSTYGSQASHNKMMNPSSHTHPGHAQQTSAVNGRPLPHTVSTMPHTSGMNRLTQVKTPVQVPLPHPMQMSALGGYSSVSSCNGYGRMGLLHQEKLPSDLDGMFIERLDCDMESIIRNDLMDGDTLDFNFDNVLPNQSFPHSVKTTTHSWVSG

How the values were obtained:
[1] = target: T1, DCAF7-Flag (human) (UniProt P61962); experiment: co-IP; HepG2 cells transfected 24 h; DCAF7-Flag precipitated with EZview Red ANTI-Flag M2 from lysate (50 mM Tris-HCl pH 7.4, 150 mM NaCl, 1 mM EDTA, 1% Triton X-100), 2 h at 4°C; immunoblot; for endogenous IRS1 in the presence or absence of insulin
T1 sequence: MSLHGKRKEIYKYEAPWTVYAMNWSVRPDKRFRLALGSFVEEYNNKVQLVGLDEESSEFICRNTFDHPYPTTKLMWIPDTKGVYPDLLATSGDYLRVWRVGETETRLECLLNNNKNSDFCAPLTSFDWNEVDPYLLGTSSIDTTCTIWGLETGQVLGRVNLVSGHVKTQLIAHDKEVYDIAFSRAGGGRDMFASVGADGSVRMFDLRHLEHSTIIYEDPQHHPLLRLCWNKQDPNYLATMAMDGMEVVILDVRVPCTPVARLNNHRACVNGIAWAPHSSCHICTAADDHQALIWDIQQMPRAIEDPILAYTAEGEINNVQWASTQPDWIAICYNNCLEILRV

[2] = target: T2, DCAF7 (co-immunoprecipitation of Figure S4A) (human) (UniProt P61962); experiment: co-IP; coimmunoprecipitation of Figure S4A; cells, constructs and bait not given
T2 sequence: T1 sequence

Substance | binding [1] | binding [2]
DYRK1A-GFP (from UniProt Q63470 1-763) (enzyme) | binds | 
endogenous IRS1 (from UniProt P35568 1-1242) | binds | 
forkhead box O1 (FOXO1) (from UniProt Q12778 1-655) |  | no binding
